Tested on: parent strain (SAWy518)
Test: microbe, parasite or virus in culture
Set-up: species or system Saccharomyces cerevisiae SAWy518; Off-target growth counter-screen, OD600 as per cent of untreated wells, strain lacking MCT1
Conditions: 18.5 h; sheet Primary Screen - final;; off-target growth of parent strain, about 18 h
Protocol: Cells were grown for 18 hours prior to OD measurement. Fill represents manual compound grouping based on compound class or target. OD600 is reported in Tecan units. […] The drug library used in this study for the initial screen and rescreen was provided by the Small Molecule Screening Center at Princeton University, through a collaboration with Dr. Hahn Kim. […] Follow-up analysis (IC50 determinations) on library compounds was performed using compounds purchased from outside sources. […] Stocks were then diluted 100-fold into media containing 0.01 OD600 inoculation of yeast, to achieve the final concentrations listed. Where compounds were added manually (for example 10 μM AZD3965 addition) stock concentrations were diluted by a factor of 100-fold regardless of scale, resulting in a final concentration of 1% v/v DMSO which is well tolerated by yeast.

For CC(C)c1c(C(=O)Nc2ccccc2)c(-c2ccccc2)c(-c2ccc(F)cc2)n1CC[C@@H](O)C[C@@H](O)CC(=O)O [Atorvastatin], the viability at 10 µM was 90.5%.
